Measured values taken from the supplement of paper PMC10849652.
The other results are listed elsewhere or left out.

Sequences of proteins named here, by UniProt entry; tags and fusion partners are left off. A change or cut given only in a name is not applied to a line headed by its entry.
UniProt Q9NRF9: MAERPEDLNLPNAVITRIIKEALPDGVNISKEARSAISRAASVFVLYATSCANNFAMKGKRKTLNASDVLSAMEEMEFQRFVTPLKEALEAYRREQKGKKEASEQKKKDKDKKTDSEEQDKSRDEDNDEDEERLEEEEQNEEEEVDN
UniProt Q9UIW2: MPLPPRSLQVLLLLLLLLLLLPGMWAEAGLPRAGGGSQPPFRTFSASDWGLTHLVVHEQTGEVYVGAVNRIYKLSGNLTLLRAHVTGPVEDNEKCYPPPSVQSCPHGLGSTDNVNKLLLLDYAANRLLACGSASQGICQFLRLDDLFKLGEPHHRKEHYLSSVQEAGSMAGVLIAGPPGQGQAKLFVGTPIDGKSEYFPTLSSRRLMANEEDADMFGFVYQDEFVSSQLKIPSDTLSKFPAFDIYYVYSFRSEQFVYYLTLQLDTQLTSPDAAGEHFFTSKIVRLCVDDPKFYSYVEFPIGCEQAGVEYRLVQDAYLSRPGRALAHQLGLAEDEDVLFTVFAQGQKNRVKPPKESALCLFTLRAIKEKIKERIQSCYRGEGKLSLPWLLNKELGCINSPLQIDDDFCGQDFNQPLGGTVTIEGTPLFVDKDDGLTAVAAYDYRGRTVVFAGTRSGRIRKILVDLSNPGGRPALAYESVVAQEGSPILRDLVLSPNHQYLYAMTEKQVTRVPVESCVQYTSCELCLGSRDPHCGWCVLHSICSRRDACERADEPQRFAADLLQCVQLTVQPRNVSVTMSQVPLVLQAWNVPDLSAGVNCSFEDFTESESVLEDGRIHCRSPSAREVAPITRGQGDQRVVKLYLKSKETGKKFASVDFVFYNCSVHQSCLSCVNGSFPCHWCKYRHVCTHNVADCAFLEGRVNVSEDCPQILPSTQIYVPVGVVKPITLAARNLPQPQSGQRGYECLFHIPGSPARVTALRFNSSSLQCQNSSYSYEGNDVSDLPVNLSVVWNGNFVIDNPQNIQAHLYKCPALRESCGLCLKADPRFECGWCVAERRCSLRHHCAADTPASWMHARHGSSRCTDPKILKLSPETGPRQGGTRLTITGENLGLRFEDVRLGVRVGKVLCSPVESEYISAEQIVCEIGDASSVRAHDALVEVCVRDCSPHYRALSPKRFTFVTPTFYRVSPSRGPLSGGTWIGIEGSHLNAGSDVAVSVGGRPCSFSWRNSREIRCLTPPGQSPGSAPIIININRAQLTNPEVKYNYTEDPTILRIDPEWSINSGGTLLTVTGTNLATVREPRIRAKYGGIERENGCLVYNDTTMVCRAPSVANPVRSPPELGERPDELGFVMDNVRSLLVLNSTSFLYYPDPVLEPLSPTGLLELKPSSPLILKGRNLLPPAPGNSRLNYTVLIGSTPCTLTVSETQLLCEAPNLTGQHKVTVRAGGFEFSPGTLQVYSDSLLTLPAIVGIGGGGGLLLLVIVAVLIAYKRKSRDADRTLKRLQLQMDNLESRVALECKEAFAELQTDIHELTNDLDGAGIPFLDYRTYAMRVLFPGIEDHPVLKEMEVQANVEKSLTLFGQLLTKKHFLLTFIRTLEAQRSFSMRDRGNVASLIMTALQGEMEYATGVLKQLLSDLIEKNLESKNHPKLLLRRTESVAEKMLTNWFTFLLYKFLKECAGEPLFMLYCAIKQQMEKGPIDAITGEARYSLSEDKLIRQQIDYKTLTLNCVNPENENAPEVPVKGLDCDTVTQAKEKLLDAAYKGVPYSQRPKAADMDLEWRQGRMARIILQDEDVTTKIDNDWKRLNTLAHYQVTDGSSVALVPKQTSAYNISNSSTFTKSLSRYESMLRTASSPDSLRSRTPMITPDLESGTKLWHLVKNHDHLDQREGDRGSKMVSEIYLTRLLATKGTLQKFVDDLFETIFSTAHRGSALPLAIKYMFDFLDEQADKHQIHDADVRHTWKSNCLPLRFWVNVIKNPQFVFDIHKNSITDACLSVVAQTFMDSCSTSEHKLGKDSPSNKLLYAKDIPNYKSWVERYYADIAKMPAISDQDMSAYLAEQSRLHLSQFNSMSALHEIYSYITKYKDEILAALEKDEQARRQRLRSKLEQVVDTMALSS
UniProt O43447: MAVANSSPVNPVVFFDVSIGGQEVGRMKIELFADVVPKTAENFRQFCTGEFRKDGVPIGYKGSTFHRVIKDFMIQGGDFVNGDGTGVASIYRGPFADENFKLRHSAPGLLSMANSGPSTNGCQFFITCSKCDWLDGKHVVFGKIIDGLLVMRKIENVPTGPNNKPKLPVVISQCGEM
UniProt Q9HAB8: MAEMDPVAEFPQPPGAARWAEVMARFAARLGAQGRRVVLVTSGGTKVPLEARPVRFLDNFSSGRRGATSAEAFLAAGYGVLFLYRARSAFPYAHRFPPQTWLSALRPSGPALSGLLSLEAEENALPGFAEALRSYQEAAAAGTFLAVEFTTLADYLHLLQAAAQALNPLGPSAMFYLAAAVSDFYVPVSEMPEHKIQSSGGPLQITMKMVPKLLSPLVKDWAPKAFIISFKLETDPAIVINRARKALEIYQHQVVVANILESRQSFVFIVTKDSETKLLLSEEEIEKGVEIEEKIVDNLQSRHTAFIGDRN
UniProt O75334: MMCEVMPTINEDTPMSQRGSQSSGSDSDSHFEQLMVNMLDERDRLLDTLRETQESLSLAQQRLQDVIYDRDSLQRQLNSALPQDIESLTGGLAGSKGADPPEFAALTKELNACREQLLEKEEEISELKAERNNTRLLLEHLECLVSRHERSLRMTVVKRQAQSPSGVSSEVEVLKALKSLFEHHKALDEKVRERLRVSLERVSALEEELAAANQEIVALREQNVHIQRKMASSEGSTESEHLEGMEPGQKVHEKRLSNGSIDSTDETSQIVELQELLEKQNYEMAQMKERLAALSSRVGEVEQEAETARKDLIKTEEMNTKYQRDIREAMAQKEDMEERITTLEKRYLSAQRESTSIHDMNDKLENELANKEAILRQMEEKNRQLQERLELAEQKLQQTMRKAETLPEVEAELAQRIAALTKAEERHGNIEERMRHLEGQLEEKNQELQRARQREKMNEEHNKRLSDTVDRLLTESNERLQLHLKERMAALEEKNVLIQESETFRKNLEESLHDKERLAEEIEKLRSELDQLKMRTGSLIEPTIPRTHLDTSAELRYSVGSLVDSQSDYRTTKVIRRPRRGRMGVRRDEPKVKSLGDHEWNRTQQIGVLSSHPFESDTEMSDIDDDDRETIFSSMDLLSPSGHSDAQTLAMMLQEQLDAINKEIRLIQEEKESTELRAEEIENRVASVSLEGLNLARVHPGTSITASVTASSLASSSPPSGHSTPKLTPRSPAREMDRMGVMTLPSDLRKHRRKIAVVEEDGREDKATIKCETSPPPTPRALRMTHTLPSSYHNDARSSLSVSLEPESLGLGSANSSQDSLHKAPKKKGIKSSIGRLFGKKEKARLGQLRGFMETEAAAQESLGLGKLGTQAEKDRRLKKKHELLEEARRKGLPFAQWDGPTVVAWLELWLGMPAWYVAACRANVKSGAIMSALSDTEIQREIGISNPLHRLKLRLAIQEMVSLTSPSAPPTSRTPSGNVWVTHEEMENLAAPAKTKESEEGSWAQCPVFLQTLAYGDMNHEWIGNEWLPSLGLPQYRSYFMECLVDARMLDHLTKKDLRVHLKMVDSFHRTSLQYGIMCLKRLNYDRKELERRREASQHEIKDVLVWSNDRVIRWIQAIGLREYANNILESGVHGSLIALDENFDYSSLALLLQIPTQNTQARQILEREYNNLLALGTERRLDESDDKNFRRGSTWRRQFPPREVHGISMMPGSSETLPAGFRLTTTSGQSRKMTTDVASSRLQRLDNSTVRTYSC
UniProt P16435: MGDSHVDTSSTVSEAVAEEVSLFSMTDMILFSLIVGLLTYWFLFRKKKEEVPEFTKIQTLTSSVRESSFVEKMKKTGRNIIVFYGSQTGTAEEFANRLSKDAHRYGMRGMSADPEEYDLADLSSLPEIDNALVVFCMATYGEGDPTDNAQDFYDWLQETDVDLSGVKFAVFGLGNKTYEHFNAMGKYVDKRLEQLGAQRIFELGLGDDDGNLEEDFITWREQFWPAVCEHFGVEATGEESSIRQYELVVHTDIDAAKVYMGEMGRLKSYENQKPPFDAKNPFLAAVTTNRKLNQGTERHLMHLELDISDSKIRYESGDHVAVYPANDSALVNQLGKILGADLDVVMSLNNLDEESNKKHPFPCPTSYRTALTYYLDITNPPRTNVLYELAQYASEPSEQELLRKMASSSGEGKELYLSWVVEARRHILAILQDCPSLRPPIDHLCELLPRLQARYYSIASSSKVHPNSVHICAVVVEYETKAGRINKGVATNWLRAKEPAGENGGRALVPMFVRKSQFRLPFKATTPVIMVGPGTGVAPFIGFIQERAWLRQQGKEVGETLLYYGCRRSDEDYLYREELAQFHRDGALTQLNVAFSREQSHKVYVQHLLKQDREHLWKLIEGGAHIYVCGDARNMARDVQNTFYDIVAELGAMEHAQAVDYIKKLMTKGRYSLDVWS
UniProt Q8N490: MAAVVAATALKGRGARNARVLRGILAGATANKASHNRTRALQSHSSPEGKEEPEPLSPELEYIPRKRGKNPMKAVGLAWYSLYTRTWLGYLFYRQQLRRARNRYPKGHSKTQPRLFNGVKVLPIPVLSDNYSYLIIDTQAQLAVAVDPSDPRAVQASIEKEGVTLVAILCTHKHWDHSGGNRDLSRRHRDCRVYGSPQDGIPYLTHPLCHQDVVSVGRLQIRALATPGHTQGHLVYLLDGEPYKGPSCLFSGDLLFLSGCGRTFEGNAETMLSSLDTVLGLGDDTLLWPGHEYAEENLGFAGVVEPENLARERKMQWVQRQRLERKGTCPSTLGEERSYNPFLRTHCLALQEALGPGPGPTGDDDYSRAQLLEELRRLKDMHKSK
UniProt Q6PFW1: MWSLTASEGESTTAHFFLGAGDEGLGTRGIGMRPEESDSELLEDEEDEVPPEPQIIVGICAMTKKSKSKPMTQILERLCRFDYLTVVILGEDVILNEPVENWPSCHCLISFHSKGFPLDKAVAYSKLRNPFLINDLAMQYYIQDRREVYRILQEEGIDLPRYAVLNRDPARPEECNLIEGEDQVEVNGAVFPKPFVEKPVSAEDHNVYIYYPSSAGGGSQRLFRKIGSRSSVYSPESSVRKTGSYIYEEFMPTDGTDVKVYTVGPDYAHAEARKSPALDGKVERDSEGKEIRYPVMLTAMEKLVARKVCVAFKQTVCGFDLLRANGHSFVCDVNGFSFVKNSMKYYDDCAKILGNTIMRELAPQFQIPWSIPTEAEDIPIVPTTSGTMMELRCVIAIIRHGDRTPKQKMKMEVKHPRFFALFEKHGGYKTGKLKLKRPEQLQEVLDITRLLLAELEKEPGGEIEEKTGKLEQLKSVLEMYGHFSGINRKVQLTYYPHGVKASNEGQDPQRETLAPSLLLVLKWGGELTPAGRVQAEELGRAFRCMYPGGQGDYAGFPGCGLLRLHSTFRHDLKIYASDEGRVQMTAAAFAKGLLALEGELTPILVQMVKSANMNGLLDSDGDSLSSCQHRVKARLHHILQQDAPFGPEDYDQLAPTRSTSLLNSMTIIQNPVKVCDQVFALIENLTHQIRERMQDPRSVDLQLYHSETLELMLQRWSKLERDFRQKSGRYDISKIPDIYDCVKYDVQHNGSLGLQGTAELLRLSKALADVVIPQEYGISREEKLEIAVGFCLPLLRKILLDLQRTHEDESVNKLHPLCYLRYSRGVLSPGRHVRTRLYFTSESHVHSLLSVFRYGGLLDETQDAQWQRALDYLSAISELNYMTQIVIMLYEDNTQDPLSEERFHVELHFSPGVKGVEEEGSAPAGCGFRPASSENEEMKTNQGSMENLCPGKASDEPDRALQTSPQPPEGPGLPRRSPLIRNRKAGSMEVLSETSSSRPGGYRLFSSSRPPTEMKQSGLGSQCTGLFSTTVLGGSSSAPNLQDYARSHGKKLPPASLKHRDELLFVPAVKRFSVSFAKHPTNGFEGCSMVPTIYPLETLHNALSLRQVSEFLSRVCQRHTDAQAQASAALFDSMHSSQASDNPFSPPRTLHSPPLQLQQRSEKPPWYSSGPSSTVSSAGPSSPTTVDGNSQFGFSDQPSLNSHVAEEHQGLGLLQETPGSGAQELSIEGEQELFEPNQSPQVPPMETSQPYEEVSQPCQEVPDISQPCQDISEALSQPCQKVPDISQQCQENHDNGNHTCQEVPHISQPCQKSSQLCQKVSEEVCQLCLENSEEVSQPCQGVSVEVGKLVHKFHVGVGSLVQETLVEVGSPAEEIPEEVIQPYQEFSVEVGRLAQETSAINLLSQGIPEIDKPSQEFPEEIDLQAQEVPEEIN

Experiments:
Assay in all cases: log2 fold change, soluble protein after heating vs DMSO (PISA); higher = thermal stabilisation; K562 cells, 10 uM, 30 min; active = over 0.2 and 3.5 SD of the protein, either way, in both replicates (recomputed)
saracatinib = compound: CN1CCN(CCOc2cc(OC3CCOCC3)c3c(Nc4c(Cl)ccc5c4OCO5)ncnc3c2)CC1 [saracatinib]
Method in brief: (§1)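 For each measurement, 10 μM compound was applied for 30 min to K562 cells at 2×10^6 cells/mL. Aliquots were heated for 3 min across 48°C-58°C, pooled, and extracted in PBS with 0.5% NP-40 at 4°C; the supernatant after 21,000xg for 90 min was soluble protein. This was quantified by TMTpro 16plex LC-MS/MS with channel sums equalised, and thermal stability was reported relative to control samples from duplicates, on a log2 fold-change scale.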

sotrastaurin = compound: CN1CCN(c2nc(C3=C(c4c[nH]c5ccccc45)C(=O)NC3=O)c3ccccc3n2)CC1 [sotrastaurin]
Method in brief: as §1

alvocidib = compound: CN1CC[C@H](c2c(O)cc(O)c3c(=O)cc(-c4ccccc4Cl)oc23)[C@H](O)C1 [alvocidib]
Method in brief: as §1

Tubastatin A = compound: CN1CCc2c(c3ccccc3n2Cc2ccc(C(=O)NO)cc2)C1 [Tubastatin A]
Method in brief: as §1

[1] = compound: CNC(=O)C1=CC=CC=C1NC2=NC(=NC=C2Cl)NC3=C(C=C(C=C3)N4CCOCC4)OC
Method in brief: as §1

defactinib = compound: CNC(=O)c1ccc(Nc2ncc(C(F)(F)F)c(NCc3nccnc3N(C)S(C)(=O)=O)n2)cc1 [defactinib]
Method in brief: as §1

rucaparib = compound: CNCc1ccc(-c2[nH]c3cc(F)cc4c3c2CCNC4=O)cc1 [rucaparib]
Method in brief: as §1

[2] = compound: CNc1nc(-c2ccc3c(N)n[nH]c3c2)cc(N2C[C@@H](C(=O)NC3CCCCC3)CC[C@H]2C)n1
Method in brief: as §1

encorafenib = compound: COC(=O)N[C@@H](C)CNc1nccc(-c2cn(C(C)C)nc2-c2cc(Cl)cc(NS(C)(=O)=O)c2F)n1 [encorafenib]
Method in brief: as §1

[3] = compound: COC(=O)[C@H](CCSC)NC(=O)C1=C(C=C(C=C1)NC[C@H](CS)N)C2=CC=CC=C2
Method in brief: as §1

[4] = compound: COC1=CC=C(C=C1)CN2C=CC3=C2C=C(C=C3)C(=O)NO
Method in brief: as §1

filanesib = compound: CON(C)C(=O)N1N=C(c2cc(F)ccc2F)S[C@@]1(CCCN)c1ccccc1 [filanesib]
Method in brief: as §1

zotarolimus = compound: CO[C@H]1C[C@@H]2CC[C@@H](C)[C@@](O)(O2)C(=O)C(=O)N2CCCC[C@H]2C(=O)O[C@H]([C@H](C)C[C@@H]2CC[C@H](n3cnnn3)[C@H](OC)C2)CC(=O)[C@H](C)/C=C(\C)[C@@H](O)[C@@H](OC)C(=O)[C@H](C)C[C@H](C)/C=C/C=C/C=C/1C [zotarolimus]
Method in brief: as §1

idasanutlin = compound: COc1cc(C(=O)O)ccc1NC(=O)[C@@H]1N[C@@H](CC(C)(C)C)[C@](C#N)(c2ccc(Cl)cc2F)[C@H]1c1cccc(Cl)c1F [idasanutlin]
Method in brief: as §1

alisertib = compound: COc1cc(Nc2ncc3c(n2)-c2ccc(Cl)cc2C(c2c(F)cccc2OC)=NC3)ccc1C(=O)O [alisertib]
Method in brief: as §1

[5] = compound: COc1cc2nc(-c3cc(F)ccc3O)nc(N[C@@H]3CNC[C@H]3C(C)(C)O)c2cc1OC
Method in brief: as §1

gefitinib = compound: COc1cc2ncnc(Nc3ccc(F)c(Cl)c3)c2cc1OCCCN1CCOCC1 [gefitinib]
Method in brief: as §1

[6] = compound: COc1cccc2cc(-c3nc([C@H]4CC[C@H](C(=O)O)CC4)n4ncnc(N)c34)[nH]c12
Method in brief: as §1

lapatinib = compound: CS(=O)(=O)CCNCc1ccc(-c2ccc3ncnc(Nc4ccc(OCc5cccc(F)c5)c(Cl)c4)c3c2)o1 [lapatinib]
Method in brief: as §1

pictilisib = compound: CS(=O)(=O)N1CCN(Cc2cc3nc(-c4cccc5[nH]ncc45)nc(N4CCOCC4)c3s2)CC1 [pictilisib]
Method in brief: as §1

Measured: log2 fold change

POLR2G (UniProt P62487)
inactive: saracatinib 0.041 | sotrastaurin -0.016 | Tubastatin A -0.045 | [1] 0.003 | defactinib 0.154 | rucaparib 0.039 | [2] 0.042 | encorafenib -0.016 | [3] -0.03 | [4] 0.039 | filanesib -0.014 | zotarolimus -0.046 | idasanutlin -0.006 | alisertib -0.054 | [5] 0.127 | gefitinib 0.001 | [6] 0.106 | lapatinib -0.022 | pictilisib 0.109
active: alvocidib 0.328

POLE3 (UniProt Q9NRF9)
inactive: saracatinib -0.03 | sotrastaurin 0.062 | alvocidib -0.002 | Tubastatin A 0.012 | [1] -0.003 | defactinib -0.036 | rucaparib -0.034 | [2] -0.021 | encorafenib -0.061 | [3] -0.059 | [4] 0.007 | filanesib 0.021 | zotarolimus 0.021 | idasanutlin 0.003 | alisertib -0.019 | [5] 0.016 | gefitinib 0 | [6] 0.003 | lapatinib -0.005 | pictilisib -0.02

POGLUT3 (UniProt Q7Z4H8)
inactive: saracatinib -0.039 | sotrastaurin -0.027 | alvocidib -0.015 | Tubastatin A 0.046 | [1] 0.043 | defactinib 0.016 | rucaparib 0.033 | [2] 0.013 | encorafenib 0.076 | [3] -0.005 | [4] -0.089 | filanesib 0.009 | zotarolimus 0.006 | idasanutlin 0.007 | alisertib -0.003 | [5] 0.059 | gefitinib 0.004 | [6] -0.04 | lapatinib 0.02 | pictilisib -0.03

PLXNA1 (UniProt Q9UIW2)
inactive: saracatinib -0.013 | sotrastaurin 0.005 | alvocidib -0.045 | Tubastatin A 0.008 | [1] -0.047 | defactinib -0.014 | rucaparib -0.002 | [2] 0.02 | encorafenib -0.027 | [3] 0.009 | [4] 0.004 | filanesib 0.063 | zotarolimus -0.011 | idasanutlin 0.003 | alisertib -0.015 | [5] 0.053 | gefitinib -0.043 | [6] 0.042 | lapatinib -0.037 | pictilisib 0.028

POLD2 (UniProt P49005)
inactive: saracatinib 0.031 | sotrastaurin -0.083 | alvocidib -0.111 | Tubastatin A 0.069 | [1] 0.023 | defactinib -0.07 | rucaparib -0.044 | [2] 0 | encorafenib -0.003 | [3] 0 | [4] 0.005 | filanesib -0.071 | zotarolimus 0.03 | idasanutlin -0.08 | alisertib 0.098 | [5] 0.01 | gefitinib 0.012 | [6] 0.022 | lapatinib 0.024 | pictilisib 0.118

PPIH (UniProt O43447)
inactive: saracatinib -0.003 | sotrastaurin 0.013 | alvocidib -0.03 | Tubastatin A 0.012 | [1] -0.005 | defactinib -0.039 | rucaparib -0.014 | [2] -0.006 | encorafenib 0.017 | [3] 0.042 | [4] 0.123 | filanesib -0.028 | zotarolimus -0.011 | idasanutlin -0.08 | alisertib -0.057 | [5] 0.042 | gefitinib 0.018 | [6] -0.019 | lapatinib -0.015 | pictilisib 0.058

POLR2A (UniProt P24928)
active: alvocidib 0.329 | [5] 0.258
inactive: saracatinib -0.012 | sotrastaurin 0.034 | Tubastatin A -0.012 | [1] -0.035 | defactinib 0.241 | rucaparib 0.126 | [2] 0.025 | encorafenib 0.027 | [3] -0.07 | [4] -0.005 | filanesib -0.021 | zotarolimus -0.026 | idasanutlin -0.054 | alisertib 0.001 | gefitinib 0.015 | [6] 0.042 | lapatinib 0 | pictilisib 0.05

PLOD1 isoform 2 (UniProt Q02809)
inactive: saracatinib -0.083 | sotrastaurin -0.058 | alvocidib 0.072 | Tubastatin A 0.075 | [1] -0.005 | defactinib 0.081 | rucaparib 0.12 | [2] 0.03 | encorafenib 0.092 | [3] -0.02 | [4] -0.072 | filanesib 0.126 | zotarolimus 0.034 | idasanutlin 0.082 | alisertib -0.125 | [5] 0.019 | gefitinib 0.01 | [6] -0.097 | lapatinib 0.107 | pictilisib -0.037

PPCS (UniProt Q9HAB8)
inactive: saracatinib 0.004 | sotrastaurin 0.043 | alvocidib 0.02 | Tubastatin A 0.007 | [1] -0.008 | defactinib -0.037 | rucaparib -0.025 | [2] -0.009 | encorafenib -0.02 | [3] -0.042 | [4] -0.038 | filanesib -0.043 | zotarolimus -0.027 | idasanutlin -0.018 | alisertib 0.024 | [5] 0.035 | gefitinib 0.005 | [6] 0.036 | lapatinib -0.038 | pictilisib 0.019

PPFIA2 (UniProt O75334)
inactive: saracatinib -0.163 | sotrastaurin -0.158 | alvocidib -0.071 | Tubastatin A 0.139 | [1] 0.02 | defactinib 0.12 | rucaparib 0.129 | [2] -0.01 | encorafenib 0.151 | [3] 0.103 | [4] -0.089 | filanesib 0.125 | zotarolimus -0.005 | idasanutlin -0.078 | alisertib 0.08 | [5] 0.005 | gefitinib -0.065 | [6] -0.083 | lapatinib 0.076 | pictilisib 0.056

PLS1 (UniProt Q14651)
inactive: saracatinib -0.02 | sotrastaurin -0.017 | alvocidib -0.077 | Tubastatin A -0.002 | [1] -0.019 | defactinib -0.055 | rucaparib 0.026 | [2] -0.02 | encorafenib -0.033 | [3] -0.028 | [4] 0.012 | filanesib 0.01 | zotarolimus 0.036 | idasanutlin -0.053 | alisertib -0.025 | [5] 0.017 | gefitinib 0.02 | [6] -0.005 | lapatinib 0.024 | pictilisib 0.023

POR (UniProt P16435)
inactive: saracatinib 0.016 | sotrastaurin 0.085 | alvocidib -0.065 | Tubastatin A 0.006 | [1] -0.004 | defactinib -0.043 | rucaparib -0.006 | [2] -0.008 | encorafenib -0.013 | [3] -0.027 | [4] 0.004 | filanesib -0.076 | zotarolimus 0.027 | idasanutlin -0.047 | alisertib -0.087 | [5] 0.082 | gefitinib 0.022 | [6] 0.008 | lapatinib -0.034 | pictilisib 0.123

PNKD isoform 3 (UniProt Q8N490)
inactive: saracatinib -0.079 | sotrastaurin 0.05 | alvocidib -0.061 | Tubastatin A 0.133 | [1] -0.02 | defactinib 0.011 | rucaparib 0.095 | [2] -0.046 | encorafenib -0.009 | [3] 0.025 | [4] 0.132 | filanesib -0.068 | zotarolimus 0.028 | idasanutlin 0.013 | alisertib -0.026 | [5] -0.2 | gefitinib 0.067 | [6] 0.031 | lapatinib -0.065 | pictilisib -0.007

2 records picked at random from those above:
POGLUT3 (UniProt Q7Z4H8)
inactive: saracatinib -0.039 | sotrastaurin -0.027 | alvocidib -0.015 | Tubastatin A 0.046 | [1] 0.043 | defactinib 0.016 | rucaparib 0.033 | [2] 0.013 | encorafenib 0.076 | [3] -0.005 | [4] -0.089 | filanesib 0.009 | zotarolimus 0.006 | idasanutlin 0.007 | alisertib -0.003 | [5] 0.059 | gefitinib 0.004 | [6] -0.04 | lapatinib 0.02 | pictilisib -0.03

POR (UniProt P16435)
inactive: saracatinib 0.016 | sotrastaurin 0.085 | alvocidib -0.065 | Tubastatin A 0.006 | [1] -0.004 | defactinib -0.043 | rucaparib -0.006 | [2] -0.008 | encorafenib -0.013 | [3] -0.027 | [4] 0.004 | filanesib -0.076 | zotarolimus 0.027 | idasanutlin -0.047 | alisertib -0.087 | [5] 0.082 | gefitinib 0.022 | [6] 0.008 | lapatinib -0.034 | pictilisib 0.123

Additional results

POLR2B (UniProt P30876)
inactive: saracatinib -0.071 | sotrastaurin -0.032 | Tubastatin A -0.01 | [1] -0.016 | defactinib 0.173 | rucaparib 0.174 | [2] -0.012 | encorafenib 0.056 | [3] -0.044 | [4] 0.034 | filanesib 0.031 | zotarolimus -0.012 | idasanutlin -0.039 | alisertib -0.057 | [5] 0.214 | gefitinib 0.064 | [6] 0.007 | lapatinib -0.018 | pictilisib 0.076
active: alvocidib 0.254

PLS3 (UniProt P13797)
inactive: saracatinib 0.033 | sotrastaurin 0.046 | alvocidib -0.033 | Tubastatin A 0.001 | [1] 0.029 | defactinib -0.007 | rucaparib -0.115 | [2] -0.014 | encorafenib -0.003 | [3] 0.025 | [4] -0.14 | filanesib 0.031 | zotarolimus 0.008 | idasanutlin -0.026 | alisertib 0.031 | [5] 0.004 | gefitinib -0.013 | [6] 0.039 | lapatinib -0.022 | pictilisib 0.036

PPIP5K1 (UniProt Q6PFW1)
inactive: saracatinib 0.056 | sotrastaurin -0.009 | alvocidib -0.012 | Tubastatin A -0.007 | [1] 0.037 | defactinib 0.005 | rucaparib -0.061 | [2] -0.007 | encorafenib -0.003 | [3] 0.012 | [4] -0.019 | filanesib -0.015 | zotarolimus 0.002 | idasanutlin -0.012 | alisertib -0.032 | [5] -0.032 | gefitinib -0.003 | [6] 0.058 | lapatinib 0.047 | pictilisib 0.097
